Reference: article doi:10.1101/2023.08.31.555658
These are yes or no findings as the source states them, for the method shown. Binding seen in cells or lysates may run through a third protein. Some binding calls cover weakened binding; strength is not graded here.

Chains of the proteins cited; added tags and fusions are not shown. Residues count along the entry.
UniProt P13595, 20-1115: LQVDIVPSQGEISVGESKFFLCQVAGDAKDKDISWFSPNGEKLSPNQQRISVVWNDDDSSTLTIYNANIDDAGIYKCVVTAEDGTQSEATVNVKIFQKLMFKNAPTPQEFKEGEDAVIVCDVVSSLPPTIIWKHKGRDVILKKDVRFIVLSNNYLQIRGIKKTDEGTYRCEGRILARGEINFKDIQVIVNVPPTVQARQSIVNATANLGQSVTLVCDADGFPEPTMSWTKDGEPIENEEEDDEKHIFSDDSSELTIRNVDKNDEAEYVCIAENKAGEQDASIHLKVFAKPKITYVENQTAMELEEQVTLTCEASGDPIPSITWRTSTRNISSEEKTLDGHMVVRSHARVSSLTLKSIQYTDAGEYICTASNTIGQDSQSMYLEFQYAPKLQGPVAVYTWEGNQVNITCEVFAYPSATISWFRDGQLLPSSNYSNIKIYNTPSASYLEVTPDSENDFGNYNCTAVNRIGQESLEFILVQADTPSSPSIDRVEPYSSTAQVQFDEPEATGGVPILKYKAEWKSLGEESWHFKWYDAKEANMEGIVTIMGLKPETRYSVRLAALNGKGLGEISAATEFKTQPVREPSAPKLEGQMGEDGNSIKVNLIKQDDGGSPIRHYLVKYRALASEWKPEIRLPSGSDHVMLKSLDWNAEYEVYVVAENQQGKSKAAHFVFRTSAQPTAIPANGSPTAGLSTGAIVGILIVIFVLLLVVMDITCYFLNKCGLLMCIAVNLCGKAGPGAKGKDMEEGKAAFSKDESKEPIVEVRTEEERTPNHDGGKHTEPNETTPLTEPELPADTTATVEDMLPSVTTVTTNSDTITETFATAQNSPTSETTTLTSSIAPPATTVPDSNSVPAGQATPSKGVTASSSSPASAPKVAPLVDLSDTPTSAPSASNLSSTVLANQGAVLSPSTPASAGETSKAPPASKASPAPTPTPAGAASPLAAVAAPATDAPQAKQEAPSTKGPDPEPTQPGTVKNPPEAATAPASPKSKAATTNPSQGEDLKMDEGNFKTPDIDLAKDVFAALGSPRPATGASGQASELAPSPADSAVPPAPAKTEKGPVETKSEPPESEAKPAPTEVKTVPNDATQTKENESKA

Molecular target: PrP^C, the cellular prion protein, of NBH-treated dC2C12 cultures (mouse (endogenous in dC2C12)) (UniProt P04925)
Test: cross-linking

How did the binding turn out when “neural cell adhesion molecule (NCAM) (from UniProt P13595 20-1115)” was run?
Its binding is “binds”.
